This is an account of results in US20240376151A1, “STAPLED PEPTIDES AND METHODS THEREOF” (FOG PHARMACEUTICALS, INC., priority 2022, published 2024).

Amino acid sequences for entries named in this document (tags omitted). A change or cut given only in a name is not applied to a line headed by its entry.
UniProt Q96EP0: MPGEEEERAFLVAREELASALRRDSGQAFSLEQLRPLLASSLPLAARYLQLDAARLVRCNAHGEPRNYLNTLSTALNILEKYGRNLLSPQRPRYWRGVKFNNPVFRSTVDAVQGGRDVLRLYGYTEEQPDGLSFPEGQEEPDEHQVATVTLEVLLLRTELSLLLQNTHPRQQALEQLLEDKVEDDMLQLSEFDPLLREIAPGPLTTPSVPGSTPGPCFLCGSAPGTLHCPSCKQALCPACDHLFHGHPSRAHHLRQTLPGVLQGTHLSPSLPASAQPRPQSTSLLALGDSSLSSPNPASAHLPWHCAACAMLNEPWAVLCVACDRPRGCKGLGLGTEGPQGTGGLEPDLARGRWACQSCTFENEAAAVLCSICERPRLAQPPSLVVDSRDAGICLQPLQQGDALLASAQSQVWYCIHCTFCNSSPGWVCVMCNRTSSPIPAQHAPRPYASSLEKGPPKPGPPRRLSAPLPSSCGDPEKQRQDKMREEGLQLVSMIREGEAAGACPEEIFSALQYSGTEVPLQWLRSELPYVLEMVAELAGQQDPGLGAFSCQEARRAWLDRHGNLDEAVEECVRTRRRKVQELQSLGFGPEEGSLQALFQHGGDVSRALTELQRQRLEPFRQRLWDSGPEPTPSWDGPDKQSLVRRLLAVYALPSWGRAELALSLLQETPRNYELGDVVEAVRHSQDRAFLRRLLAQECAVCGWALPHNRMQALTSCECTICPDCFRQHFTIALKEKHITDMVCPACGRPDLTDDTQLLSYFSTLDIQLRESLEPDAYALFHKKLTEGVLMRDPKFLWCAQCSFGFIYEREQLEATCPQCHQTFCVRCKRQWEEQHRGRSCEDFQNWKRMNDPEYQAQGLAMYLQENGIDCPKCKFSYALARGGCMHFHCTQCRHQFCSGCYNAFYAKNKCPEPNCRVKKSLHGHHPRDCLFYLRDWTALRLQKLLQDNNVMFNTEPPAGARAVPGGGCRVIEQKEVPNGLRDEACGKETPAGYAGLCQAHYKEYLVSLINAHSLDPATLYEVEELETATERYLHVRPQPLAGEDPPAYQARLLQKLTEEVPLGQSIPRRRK

In test [1] the target is RNF31 UBA domain (residues 480-639) (Homo sapiens (Human)) (UniProt Q96EP0). In words: competition FP against 5FAM-FP06655 (1.m42) on RNF31 UBA.
The target is the same in test [2]. In words: competition FP.

Results are given in words; binding and its absence hold for the method and conditions named. Some entries that bind do so weakly or less than the wild type.

B1: Sharpin/SIPL1 UBL domain, unlabeled recombinant protein (protein, UniProt Q9H0F6 206-309, looked up)
chain: SVQLQEACFPPGPIRLQVTLEDAASAASAASSAHVALQVHPHCTVAALQEQVFSELGFPPAVQRWVIGRCLCVPERSLASYGVRQDGDPAFLYLLSAPREAPAT
As to B1, the binding result in test [1] and in test [2] was “binds” throughout.
